From PMC9140019
Results are given in words; binding and its absence hold for the method and conditions named. In cells and extracts the contact can be indirect. Some binding calls cover weakened binding; strength is not graded here.

The chains behind the UniProt entries cited, without tags or fusion partners. Where a name states a change or a piece, a line headed by the entry shows the natural chain unless it says otherwise. Residues count along the entry.
UniProt Q13464: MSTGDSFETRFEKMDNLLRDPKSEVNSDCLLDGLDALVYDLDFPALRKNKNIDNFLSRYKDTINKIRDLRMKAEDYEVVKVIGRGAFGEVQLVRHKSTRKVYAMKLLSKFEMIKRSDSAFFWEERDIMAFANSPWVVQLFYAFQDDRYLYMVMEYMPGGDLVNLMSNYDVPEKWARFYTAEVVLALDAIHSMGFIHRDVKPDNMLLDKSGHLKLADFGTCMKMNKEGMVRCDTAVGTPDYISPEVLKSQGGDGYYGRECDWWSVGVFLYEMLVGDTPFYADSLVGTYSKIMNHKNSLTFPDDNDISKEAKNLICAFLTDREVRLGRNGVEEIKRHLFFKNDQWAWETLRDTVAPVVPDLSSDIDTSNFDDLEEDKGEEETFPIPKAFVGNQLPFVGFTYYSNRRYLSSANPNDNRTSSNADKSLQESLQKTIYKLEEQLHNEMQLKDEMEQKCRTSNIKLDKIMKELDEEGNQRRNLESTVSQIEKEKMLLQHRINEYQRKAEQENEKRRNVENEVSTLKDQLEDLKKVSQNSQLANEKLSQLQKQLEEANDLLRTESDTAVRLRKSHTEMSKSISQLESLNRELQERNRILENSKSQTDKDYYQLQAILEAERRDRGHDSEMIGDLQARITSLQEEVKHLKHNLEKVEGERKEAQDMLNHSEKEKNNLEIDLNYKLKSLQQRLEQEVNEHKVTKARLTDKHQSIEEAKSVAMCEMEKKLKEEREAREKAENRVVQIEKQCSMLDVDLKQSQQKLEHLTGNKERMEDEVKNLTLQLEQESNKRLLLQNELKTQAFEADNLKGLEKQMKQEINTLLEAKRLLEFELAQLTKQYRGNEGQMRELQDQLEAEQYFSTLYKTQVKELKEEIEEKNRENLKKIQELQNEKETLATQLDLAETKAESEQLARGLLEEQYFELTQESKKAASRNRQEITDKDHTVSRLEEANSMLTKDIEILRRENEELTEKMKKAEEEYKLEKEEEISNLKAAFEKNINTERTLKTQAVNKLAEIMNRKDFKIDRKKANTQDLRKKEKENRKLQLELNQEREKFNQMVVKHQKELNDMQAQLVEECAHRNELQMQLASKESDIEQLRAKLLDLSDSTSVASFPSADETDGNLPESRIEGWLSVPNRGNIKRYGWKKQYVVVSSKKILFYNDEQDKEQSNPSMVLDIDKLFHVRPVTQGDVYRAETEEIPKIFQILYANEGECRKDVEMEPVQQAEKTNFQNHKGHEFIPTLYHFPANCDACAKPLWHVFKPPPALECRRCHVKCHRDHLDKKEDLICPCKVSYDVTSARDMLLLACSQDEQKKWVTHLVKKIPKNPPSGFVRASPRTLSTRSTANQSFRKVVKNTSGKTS
UniProt P27361: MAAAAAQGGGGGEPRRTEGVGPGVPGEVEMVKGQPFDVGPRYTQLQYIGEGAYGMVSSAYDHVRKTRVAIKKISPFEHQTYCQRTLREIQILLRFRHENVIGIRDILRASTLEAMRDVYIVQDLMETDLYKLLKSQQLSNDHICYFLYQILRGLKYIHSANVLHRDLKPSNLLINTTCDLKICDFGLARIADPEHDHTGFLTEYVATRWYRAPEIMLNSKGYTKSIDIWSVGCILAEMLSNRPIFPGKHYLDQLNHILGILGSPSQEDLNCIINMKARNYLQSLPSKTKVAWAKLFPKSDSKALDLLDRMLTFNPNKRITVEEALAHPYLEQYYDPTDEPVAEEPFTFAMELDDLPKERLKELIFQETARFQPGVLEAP
UniProt P10909, residues 23-449: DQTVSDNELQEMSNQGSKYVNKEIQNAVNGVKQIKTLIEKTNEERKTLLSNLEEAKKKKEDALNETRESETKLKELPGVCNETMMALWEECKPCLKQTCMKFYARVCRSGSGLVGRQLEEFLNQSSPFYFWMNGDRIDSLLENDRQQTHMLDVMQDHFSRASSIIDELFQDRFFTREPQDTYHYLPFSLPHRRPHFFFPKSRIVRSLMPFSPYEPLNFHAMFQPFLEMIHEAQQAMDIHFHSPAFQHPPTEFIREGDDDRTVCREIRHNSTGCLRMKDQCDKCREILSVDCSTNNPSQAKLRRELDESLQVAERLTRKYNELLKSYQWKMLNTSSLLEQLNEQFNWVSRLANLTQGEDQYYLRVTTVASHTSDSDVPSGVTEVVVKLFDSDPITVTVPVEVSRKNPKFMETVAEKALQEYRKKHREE
UniProt P28482: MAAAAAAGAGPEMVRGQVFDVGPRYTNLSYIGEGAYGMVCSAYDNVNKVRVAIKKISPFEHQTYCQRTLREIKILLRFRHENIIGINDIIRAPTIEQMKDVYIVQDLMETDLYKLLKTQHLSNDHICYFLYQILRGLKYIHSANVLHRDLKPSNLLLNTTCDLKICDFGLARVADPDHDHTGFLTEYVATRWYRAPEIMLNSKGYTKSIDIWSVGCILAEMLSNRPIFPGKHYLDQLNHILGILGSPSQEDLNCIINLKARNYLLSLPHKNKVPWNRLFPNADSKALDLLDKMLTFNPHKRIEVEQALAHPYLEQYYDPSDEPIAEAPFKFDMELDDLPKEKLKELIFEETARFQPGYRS

How the values were obtained:
HA-tagged ROCK1 (human) [1] = biological target: HA-tagged ROCK1 (human) (UniProt Q13464); assay: co-IP; co-IP of ROCK1 and ERK1/2 in the absence and presence of CLU; cells and tags not stated for this panel
HA-tagged ROCK1 (human) [2] = biological target: HA-tagged ROCK1 (human) (UniProt Q13464); assay: co-IP; 293FT cells transiently overexpressing Flag-tagged CLU and HA-tagged ROCK1; Flag magnetic beads and HA affinity agarose beads; Western blotting
[3] = biological target: ROCK1 (endogenous) (human (endogenous in 293FT, H460 and A549)) (UniProt Q13464); assay: proximity ligation; Duolink PLA in situ (distances < 40 nm) with anti-CLU and anti-ROCK1 antibodies in H460 and A549 cells

| binding (HA-tagged ROCK1 (human) [1]) | binding (HA-tagged ROCK1 (human) [2]) | Substance | further results |
| --- | --- | --- | --- |
| binds |  | ERK1 (of ERK1/2) (from UniProt P27361 1-379) |  |
|  | binds | Flag-tagged precursor Clusterin (cytoplasmic precursor CLU, psCLU) (from UniProt P10909 23-449) |  |
| binds |  | ERK2 (of ERK1/2) (from UniProt P28482 1-360) |  |
|  |  | Clusterin (CLU), endogenous in lung cancer cells (from UniProt P10909 23-449) | binding [3]: binds |
|  | no binding | secretory Clusterin (sCLU) from Flag-tagged CLU (from UniProt P10909-1 23-227; P10909-1 228-449) (complex) |  |
